# Tests used:
# [1] = biological target: T1, native MDH (malate dehydrogenase) reporter enzyme (Sus scrofa, UniProt P00346); assay: Native MDH enzymatic reporter counter-screen; type: biochemical
# T1 sequence (P00346 25-338): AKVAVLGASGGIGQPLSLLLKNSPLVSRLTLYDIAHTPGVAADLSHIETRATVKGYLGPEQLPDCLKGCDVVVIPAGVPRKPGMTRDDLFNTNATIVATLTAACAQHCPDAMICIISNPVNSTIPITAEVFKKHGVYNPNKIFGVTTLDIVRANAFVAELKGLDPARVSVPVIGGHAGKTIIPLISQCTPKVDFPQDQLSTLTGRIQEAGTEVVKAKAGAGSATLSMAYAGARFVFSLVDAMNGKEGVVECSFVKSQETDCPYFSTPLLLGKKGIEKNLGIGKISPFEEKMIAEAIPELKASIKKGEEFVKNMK
# [2] = biological target: T2, native Rho (rhodanese) reporter enzyme (Bos taurus, UniProt P00586); assay: Native Rho enzymatic reporter counter-screen; type: biochemical
# T2 sequence (P00586 2-297 limits assumed): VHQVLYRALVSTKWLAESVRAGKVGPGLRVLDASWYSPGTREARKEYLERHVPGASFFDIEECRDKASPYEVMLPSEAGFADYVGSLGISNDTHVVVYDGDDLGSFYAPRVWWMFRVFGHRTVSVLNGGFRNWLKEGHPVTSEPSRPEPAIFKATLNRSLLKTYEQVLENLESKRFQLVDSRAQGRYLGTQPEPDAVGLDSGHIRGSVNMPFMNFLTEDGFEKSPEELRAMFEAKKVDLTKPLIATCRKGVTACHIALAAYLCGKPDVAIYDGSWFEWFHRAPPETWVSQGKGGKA
SMILES,IC50 [1],IC50 [2]
"Oc1ccc2c3c1O[C@H]1[C@@H](O)CC[C@@]4(O)[C@@H](C2)N(CC2CCC2)CC[C@]314 [Compound 58, Nalbuphine]",> 63 µM,
"CC(C)(C)CC(C)(C)c1ccc(OCCOCC[N+](C)(C)Cc2ccccc2)cc1 [Compound 39, Benzethonium chloride]",> 63 µM,
"CCCCCCCCCCCCCCCC[n+]1ccccc1 [Compound 8, Cetylpyridinium chloride]",,> 100 µM
